Here are results for one molecule from patent US20190225686A1.

Sequences of proteins named here, by UniProt entry; tags and fusion partners are left off. A change or cut given only in a name is not applied to a line headed by its entry.
UniProt Q99678: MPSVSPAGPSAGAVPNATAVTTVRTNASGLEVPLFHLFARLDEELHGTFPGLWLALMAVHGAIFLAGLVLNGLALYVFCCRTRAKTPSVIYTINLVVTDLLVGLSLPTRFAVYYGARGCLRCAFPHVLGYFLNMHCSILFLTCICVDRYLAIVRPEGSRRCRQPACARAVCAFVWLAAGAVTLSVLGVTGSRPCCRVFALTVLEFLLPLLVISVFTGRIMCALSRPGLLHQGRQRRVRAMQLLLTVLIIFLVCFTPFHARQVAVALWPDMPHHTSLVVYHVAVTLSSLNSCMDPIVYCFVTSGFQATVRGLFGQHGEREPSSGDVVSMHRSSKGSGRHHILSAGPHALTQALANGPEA

The target in the test is human GPR20 (human) (UniProt Q99678). The test is described as follows: flow cytometry on 293T cells transfected with pcDNA3.1-hGPR20.

These are yes or no findings as the source states them, for the method shown. Some binding calls cover weakened binding; strength is not graded here.

B1: humanized h046-Hwt/L6 (antibody, human IgG1, kappa, V domains shown)
VH: QVQLQQSGAELAKPGSSVKISCKASGYTFTSYYISWIKQTTGQGLKYIGFINPGSGHTNYNEKFKGKATLTVDKSSSTAFMQLSSLTPDDSAIYYCARGAGGFLRIITKFDYWGQGVMVTVSS
VL: DTQLTQSPSSLSASVGDRVTITCRASKSVSTYIHWYQQKPGKQPKLLIYSASDRESGVPSRFSGSGSGTDFTLTISSLQPEDFANYYCQQINELPYTFGQGTKVEIKR
As to B1, the binding entry is reported as “binds”.
